This test concerns the target p85-PI3K-Myc (p85 subunit of PI3K, Myc-tagged). As to the kind of experiment: co-IP; Flag-tagged MG53 (wild type or S255A) with p85-PI3K-Myc or CaV3-Myc in HEK293 cells.

No constants are given. Whether binding was seen depends on the method and setting. Binding seen in cells or lysates may run through a third protein. Binding can be weak; no strength is given. Sequences can lack the tags named with a protein.

B1: Flag-tagged S255A mutant of MG53 (protein, UniProt Q6ZMU5 1-477)
chain: MSAAPGLLHQELSCPLCLQLFDAPVTAECGHSFCRACLGRVAGEPAADGTVLCPCCQAPTRPQALSTNLQLARLVEGLAQVPQGHCEEHLDPLSIYCEQDRALVCGVCASLGSHRGHRLLPAAEAHARLKTQLPQQKLQLQEACMRKEKSVAVLEHQLVEVEETVRQFRGAVGEQLGKMRVFLAALEGSLDREAERVRGEAGVALRRELGSLNSYLEQLRQMEKVLEEVADKPQTEFLMKYCLVTSRLQKILAEAPPPARLDIQLPIISDDFKFQVWRKMFRALMPALEELTFDPSSAHPSLVVSSSGRRVECSEQKAPPAGEDPRQFDKAVAVVAHQQLSEGEHYWEVDVGDKPRWALGVIAAEAPRRGRLHAVPSQGLWLLGLREGKILEAHVEAKEPRALRSPERRPTRIGLYLSFGDGVLSFYDASDADALVPLFAFHERLPRPVYPFFDVCWHDKGKNAQPLLLVGPEGAEA
As to B1, the binding entry is “binds”.

Values taken from PMC9770150.
